Values joined by “and” are separate entries in the source; they are usually repeats but may differ in a detail not shown here. Identical values can stand only once. Among all 59,000 compounds or so, about 35 (0.06%) were called active. The shares of active, inactive and inconclusive entries below differ from those in the screen. No stated cut-off is given here; in the data, active means max dye-equivalent concentration above about 10 nM; inconclusive means between about 1.1 nM and that limit; inactive means weaker than that.
assay: qHTS Assay for Spectroscopic Profiling in Texas Red Spectral Region; settings: Compound fluorescence, Texas Red channel, 547/618 nm; stronger effect = higher value
Procedure, shortened: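 Compound fluorescence was read after 15 min at room temperature in 100 mM Tris, pH 8.0, using 547 nm excitation and 618 nm emission across a concentration series. It was expressed as Texas Red dye-equivalent concentration from an on-plate standard curve.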

Row | Compound | max dye-equivalent concentration
1 | CN1CC[n+]2cnc3ccccc3c21 | inconclusive: 2e-09 M
2 | O=c1[nH][nH]c(=S)c(=O)[nH]1 | inactive
3 | Cc1ccccc1/C=C\C1=NCCN1 | inactive
4 | Cc1cc(C)c(C#N)c(N2CCN(CCOc3ccc(Cl)cc3)CC2)n1 | inconclusive: 1.1e-09 M
5 | N#CC(CC(=O)O)=C(c1ccccc1)c1ccccc1 | inconclusive: 1.3e-09 M
6 | CN(CCC#N)c1ncnc2scc(-c3ccccc3)c12 | inconclusive: 1.2e-09 M
7 | COC(=O)c1ccc2c(=O)n(Cc3ccco3)c(SCC(=O)Nc3ccc(C)c(Cl)c3)nc2c1 | inconclusive: 1.2e-09 M
8 | Cc1cc(NC(=O)Nc2ccccc2)n(-c2ccccc2)n1 | inconclusive: 1.3e-09 M
9 | CC(=O)C1=C(C)N=c2s/c(=C/c3ccc4c(c3)OCO4)c(=O)n2C1c1ccc(N(C)C)cc1 (configuration not stated) | inactive
10 | COC(=O)c1nnc(-c2ccccc2)c(-c2ccccc2)n1 | inconclusive: 1.4e-09 M
11 | c1ccc2c(N3CCNCC3)nc(-c3ccc4c(c3)OCO4)nc2c1 | inactive
12 | CC(=O)OC(C)(C)N=Nc1ccc(Br)cc1 | inactive
13 | c1ccc(-c2ccc(N3CCCC4(CCNCC4)C3)cc2)cc1 | inactive
14 | CCOC(=O)CSC1=C(C#N)C(c2ccc(C)cc2)C(C(=O)OC)C(=O)N1 (configuration not stated) | inconclusive: 1.3e-09 M
15 | NC(N)=NC(=O)c1nc(Cl)c(N)nc1N | inconclusive: 1.2e-09 M and inconclusive: 1.1e-09 M
16 | N#CCSc1nc2scc(-c3cccs3)c2c(=O)n1CCc1ccccc1 | inconclusive: 1.2e-09 M
17 | COc1ccc(-n2nnnc2S(=O)(=O)Cc2ccc(C(=O)O)cc2)cc1 | inconclusive: 1.4e-09 M
18 | COC(=O)c1ccccc1NC(=O)c1cc(-c2cccc(OC)c2)on1 | inconclusive: 1.5e-09 M
19 | COCCCNC(=O)C(C#N)c1nc2ccccc2nc1N1CCN(Cc2ccccc2)CC1 (configuration not stated) | inactive

Row | Compound | max dye-equivalent concentration
20 | CC1CCC(C(=O)NC(C(=O)NCCN2CCC(C)CC2)C(C)C)CC1 (configuration not stated) | inconclusive: 1.3e-09 M
21 | CC(C)OC(=O)CCCCCN1C(=O)CSC1=S | inconclusive: 1.4e-09 M
22 | COc1ccccc1CNC(=O)C(CCSC)NS(=O)(=O)c1ccc2c(c1)oc(=O)n2C (configuration not stated) | inconclusive: 1.1e-09 M
23 | NS(=O)(=O)c1ccc(CCNC(=O)c2cncc(Br)c2)cc1 | inconclusive: 2.2e-09 M
24 | Cc1oc(C(C)(C)C)cc1C(=O)Nc1ccc2c(c1)OCCO2 | inconclusive: 1.4e-09 M
25 | O=C(Nc1ccc2c(c1)OCO2)C1CCCN1C(=O)Nc1ccccc1F (configuration not stated) | inconclusive: 1.6e-09 M
26 | CCCCn1c(CN2CCN(C)CC2)nc2ccccc21 | inactive
27 | CC(OC(=O)c1ccco1)C(=O)NC1CCCCC1 (configuration not stated) | inconclusive: 1.4e-09 M
28 | CSc1nc2ccc(S(=O)(=O)Nc3c(C)n(C)n(-c4ccccc4)c3=O)cc2s1 | inconclusive: 1.2e-09 M
29 | COc1ccc2c3c([nH]c2c1)[C@H]1C[C@@H]2[C@@H](C[C@@H](O)[C@H](OC)[C@H]2C(=O)O)CN1CC3 | inactive
30 | CCc1ccc(S(=O)(=O)NCCc2cn3ccccc3n2)s1 | inconclusive: 1.2e-09 M
31 | CS(=O)(=O)Nc1cccc(-c2nc(NCc3ccccc3)c3ccccc3n2)c1 | inactive
32 | C[N+](C)(C)CC(=O)O | inconclusive: 1.2e-09 M
33 | O=C(NCCc1c[nH]c2ccccc12)c1cc(S(=O)(=O)N2CCCCC2)ccc1N1CCOCC1 | inconclusive: 2.8e-09 M
34 | O=C(c1ccncc1)N1CCC[C@@]2(CCN(c3ccccc3)C2)C1 | inactive
35 | O=C(OCc1ccc2c(c1)OCO2)c1ccc(S(=O)(=O)N2CCCC2)cc1 | inconclusive: 2.3e-09 M
36 | O=C(COC(=O)CCOc1ccccc1)Nc1ccc(Cl)cn1 | inconclusive: 1.4e-09 M
37 | O=C(COC(=O)c1cc(-c2ccco2)nc2ccccc12)NCc1ccc2c(c1)OCO2 | inconclusive: 2.4e-09 M
38 | O=C(Cn1[nH]c(=O)c2ccccc2c1=O)Nc1cccc(-c2nnc3n2CCCCC3)c1 | inconclusive: 1.1e-09 M

Row | Compound | max dye-equivalent concentration
39 | CCOC(=O)C1=C(CSc2nc3c(cc2C#N)CN(C)CC3)OC(N)=C(C#N)C1c1ccccc1 (configuration not stated) | inactive
40 | CCC(C)N(C)Cc1cccc(C2(O)CCN(S(=O)(=O)c3ccc(F)cc3)CC2)c1 (configuration not stated) | inconclusive: 1.4e-09 M
41 | CNc1nc(SCC(=O)OC)nc(N2CCOCC2)n1 | inconclusive: 1.7e-09 M
42 | OCCN(CCO)c1nc(N2CCCCC2)c2nc(N(CCO)CCO)nc(N3CCCCC3)c2n1 | inactive
43 | CCOC(=O)c1ccc(NC(=O)CCc2nc(-c3cccc(C)c3)no2)cc1 | inconclusive: 1.1e-09 M
44 | Nc1nc(-c2ccc3ccccc3c2)cc(-c2cc(-c3ccc4ccccc4c3)nc(N)n2)n1 | inconclusive: 1.1e-09 M
45 | Nn1c(Cc2cccc3ccccc23)nnc1SC1CCOC1=O (configuration not stated) | inconclusive: 1.4e-09 M
46 | Cc1cc(NC(=O)Cn2cc(C(F)(F)F)cc(Cl)c2=O)no1 | inconclusive: 1.5e-09 M
47 | Cc1cc(Nc2ccccc2)nn1C(=O)c1ccccc1 | inconclusive: 1.7e-09 M
48 | COc1ccccc1C(=O)Nc1cc(Cl)ccc1O | inconclusive: 1.1e-09 M
49 | Cn1c(=O)c(-c2ccccc2)nc2cnc(N3CCOCC3)nc21 | inactive
50 | COc1ccccc1N1CCN(S(=O)(=O)c2ccccc2)CC1 | inconclusive: 1.5e-09 M
51 | Cc1ccc(-c2nc(-c3cccnc3)no2)cc1 | inconclusive: 1.9e-09 M
52 | CN(Cc1ccccc1)Cc1c(F)cccc1F | inconclusive: 2e-09 M
53 | COC(=O)C1=C(N)Oc2cc(C)n(CC3CCCO3)c(=O)c2C1c1ccc(Cl)cc1 (configuration not stated) | inconclusive: 1.2e-09 M
54 | FC(F)(F)c1cccc(-c2nnc3ccc(C(F)(F)F)cn23)c1 | inconclusive: 2.1e-09 M
55 | C/C(Cl)=C/Cn1c(NCCN(C)C)nc2c1c(=O)n(C)c(=O)n2C | inconclusive: 1.5e-09 M
56 | COc1cccc(CNC(=O)C2CCCN(S(C)(=O)=O)C2)c1 (configuration not stated) | inconclusive: 1.3e-09 M
57 | Cc1ccc(CCNC(=O)C2CCC(=O)N2C2CCCC2)cc1 (configuration not stated) | inconclusive: 1.3e-09 M

Reference: PubChem BioAssay AID587 (National Center for Advancing Translational Sciences (NCATS), 2007)
